{
  "source": "patent US20140371244A1",
  "about": "“METHOD FOR TREATING PROSTATE CANCER BY USE OF PHARMACEUTICAL COMPOSITION CONTAINING A3 ADENOSINE RECEPTOR AGONIST” (priority 2009, published 2014)",
  "system": "ICR white mice",
  "test": "Animal toxicity test, single oral dose",
  "format": "in vivo",
  "description": "In order to examine the toxicities of thio-Cl-IB-MECA and thio-IB-MECA, each of the compounds was administered orally to ICR white mice (n=10, 25 g) at a dose of 1500 mg/kg weight, and the behavioral change and state of the mice were observed.",
  "note": "Some of these results come from one statement about several compounds together.",
  "data": [
    {"smiles": "CNC(=O)[C@H]1S[C@@H](n2cnc3c(NCc4cccc(I)c4)nc(Cl)nc32)[C@H](O)[C@@H]1O", "note": "[thio-Cl-IB-MECA, 2-chloro-N^6-(3-iodobenzyl)-4′-thioadenosine-5′-N-methyluronamide]", "values": [
      {"measurement": "maximum tolerance dose (MTD)", "value": "more than 1500 mg/kg"}
    ]}
  ]
}
